PubChem BioAssay AID1224830, NIAID | 2016
The deposit covers about 18,000 reagents; below is a random part of them. In the full data, about 2,900 (16%) are marked active. 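Calls are made per well; low scores hint the gene aids the LPS response, high scores that it dampens it.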 Unmarked entries are inactive. Repeated entries: four replicate wells of each siRNA pool. Reagent sequences are not shown.

Aim: 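Host factors that control LPS-induced TNF expression in human macrophages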 (primary screen)
Cell system: human THP-1 monocytic leukaemia cells, TNF dual-luciferase reporter clone, PMA-differentiated to macrophage-like cells
Knock-down reagent: siRNA pool against human genes, 50 nM
Time to read-out: LPS for 4 h, given about 3 days after siRNA transfection
Challenge: bacterial LPS (TLR4 ligand), 10 ng/ml
Measurement: 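TNF firefly reporter luminescence divided by renilla, normalised to the plate median, then turned into a robust z-score for each replicate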
Direction: TNF reporter robust z-score: higher = stronger TNF reporter response to LPS
Rule for the call: 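Each well counts as active if its z-score is over 2.8 or under -1.5; controls are left without a call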

| target | TNF reporter robust z-score |
| --- | --- |
| IL20 (interleukin 20) | -0.65 |
| IL20 (interleukin 20) | -0.58 |
| IL20 (interleukin 20) | -0.8 |
| IL20 (interleukin 20) | 0.05 |
| GADD45B (growth arrest and DNA damage inducible beta) | 1.81 |
| GADD45B (growth arrest and DNA damage inducible beta) | 2.61 |
| GADD45B (growth arrest and DNA damage inducible beta) | 1.43 |
| GADD45B (growth arrest and DNA damage inducible beta) | 2.91 (active) |
| CYP4F8 (cytochrome P450 family 4 subfamily F member 8) | -1.18 |
| CYP4F8 (cytochrome P450 family 4 subfamily F member 8) | -1.4 |
| CYP4F8 (cytochrome P450 family 4 subfamily F member 8) | -0.51 |
| CYP4F8 (cytochrome P450 family 4 subfamily F member 8) | -0.96 |
| SCGB2A2 (secretoglobin family 2A member 2) | 0.47 |
| SCGB2A2 (secretoglobin family 2A member 2) | 1.54 |
| SCGB2A2 (secretoglobin family 2A member 2) | -0.58 |
| SCGB2A2 (secretoglobin family 2A member 2) | -0.16 |
| ZBTB7B (zinc finger and BTB domain containing 7B) | -0.02 |
| ZBTB7B (zinc finger and BTB domain containing 7B) | -0.07 |
| ZBTB7B (zinc finger and BTB domain containing 7B) | 0.86 |
| ZBTB7B (zinc finger and BTB domain containing 7B) | 0.59 |
| DUS1L (dihydrouridine synthase 1 like) | 2.13 |
| DUS1L (dihydrouridine synthase 1 like) | -0.19 |
| DUS1L (dihydrouridine synthase 1 like) | 1 |
| DUS1L (dihydrouridine synthase 1 like) | 0.19 |
| RBM18 (RNA binding motif protein 18) | -1.04 |
| RBM18 (RNA binding motif protein 18) | -0.14 |
| RBM18 (RNA binding motif protein 18) | -1 |
| RBM18 (RNA binding motif protein 18) | -1.55 (active) |
| SH3BGR (SH3 domain binding glutamate rich protein) | -0.97 |
| SH3BGR (SH3 domain binding glutamate rich protein) | -1.19 |
| SH3BGR (SH3 domain binding glutamate rich protein) | -0.06 |
| SLC2A3 | 0.12 |
| SLC2A3 | 0.16 |
| SLC2A3 | 0.64 |
| SLC2A3 | 1.36 |
| SAYSD1 (SAYSVFN motif domain containing 1) | 2.98 (active) |
| SAYSD1 (SAYSVFN motif domain containing 1) | 3.31 (active) |
| SAYSD1 (SAYSVFN motif domain containing 1) | 0.64 |
| SAYSD1 (SAYSVFN motif domain containing 1) | 0.15 |
| CROCC (ciliary rootlet coiled-coil, rootletin) | -0.09 |
| CROCC (ciliary rootlet coiled-coil, rootletin) | 0.12 |
| CROCC (ciliary rootlet coiled-coil, rootletin) | -0.14 |
| CROCC (ciliary rootlet coiled-coil, rootletin) | 0.17 |
| ERLIN2 (ER lipid raft associated 2) | 1.46 |
| ERLIN2 (ER lipid raft associated 2) | 0.37 |
| ERLIN2 (ER lipid raft associated 2) | 0.38 |
| ERLIN2 (ER lipid raft associated 2) | -0.13 |
| OLR1 (oxidized low density lipoprotein receptor 1) | 0.28 |
| OLR1 (oxidized low density lipoprotein receptor 1) | 0.04 |
| OLR1 (oxidized low density lipoprotein receptor 1) | 0.52 |
| OLR1 (oxidized low density lipoprotein receptor 1) | 1.14 |
| ADCYAP1 (adenylate cyclase activating polypeptide 1) | 0.04 |
| ADCYAP1 (adenylate cyclase activating polypeptide 1) | 0.47 |
| ADCYAP1 (adenylate cyclase activating polypeptide 1) | -0.19 |
| ADCYAP1 (adenylate cyclase activating polypeptide 1) | -0.17 |
| SIX5 (SIX homeobox 5) | 1.72 |
| SIX5 (SIX homeobox 5) | 0.71 |
| SIX5 (SIX homeobox 5) | -0.07 |
| SIX5 (SIX homeobox 5) | 0.07 |
| FDPS (farnesyl diphosphate synthase) | -1.25 |
| FDPS (farnesyl diphosphate synthase) | -0.81 |
| FDPS (farnesyl diphosphate synthase) | -0.7 |
| FDPS (farnesyl diphosphate synthase) | -1.12 |
| PARP12 (poly(ADP-ribose) polymerase family member 12) | 0.79 |
| PARP12 (poly(ADP-ribose) polymerase family member 12) | 0.73 |
| PARP12 (poly(ADP-ribose) polymerase family member 12) | 2.5 |
| PARP12 (poly(ADP-ribose) polymerase family member 12) | 2.92 (active) |
| CARD9 (caspase recruitment domain family member 9) | 1.25 |
| CARD9 (caspase recruitment domain family member 9) | -0.23 |
| CARD9 (caspase recruitment domain family member 9) | -0.37 |
| CARD9 (caspase recruitment domain family member 9) | -0.43 |
| ALAS2 (5'-aminolevulinate synthase 2) | -1.67 (active) |
| ALAS2 (5'-aminolevulinate synthase 2) | -1.4 |
| ALAS2 (5'-aminolevulinate synthase 2) | -1.36 |
| ALAS2 (5'-aminolevulinate synthase 2) | -1.69 (active) |
| AEN (apoptosis enhancing nuclease) | -0.68 |
| AEN (apoptosis enhancing nuclease) | -0.66 |
| AEN (apoptosis enhancing nuclease) | -0.49 |
| AEN (apoptosis enhancing nuclease) | -0.32 |
| AKR1A1 (aldo-keto reductase family 1 member A1) | -0.94 |
| AKR1A1 (aldo-keto reductase family 1 member A1) | -0.87 |
| AKR1A1 (aldo-keto reductase family 1 member A1) | -1.05 |
| AKR1A1 (aldo-keto reductase family 1 member A1) | -1.04 |
| FAM241A (family with sequence similarity 241 member A) | -1.18 |
| FAM241A (family with sequence similarity 241 member A) | -1.22 |
| FAM241A (family with sequence similarity 241 member A) | -1.91 (active) |
| FAM241A (family with sequence similarity 241 member A) | -1.68 (active) |
| AMELX (amelogenin X-linked) | -0.33 |
| AMELX (amelogenin X-linked) | 0 |
| AMELX (amelogenin X-linked) | 0.12 |
| AMELX (amelogenin X-linked) | 1.37 |
| HAL (histidine ammonia-lyase) | 0.45 |
| HAL (histidine ammonia-lyase) | 1.18 |
| HAL (histidine ammonia-lyase) | 0.47 |
| HAL (histidine ammonia-lyase) | 0.02 |
| ANKRD6 (ankyrin repeat domain 6) | -1.03 |
| ANKRD6 (ankyrin repeat domain 6) | -1.42 |
| ANKRD6 (ankyrin repeat domain 6) | -0.75 |
| ANKRD6 (ankyrin repeat domain 6) | -0.68 |
| KRTAP19-3 (keratin associated protein 19-3) | -1 |
| KRTAP19-3 (keratin associated protein 19-3) | -0.85 |
| KRTAP19-3 (keratin associated protein 19-3) | -1.03 |
| KRTAP19-3 (keratin associated protein 19-3) | -1.62 (active) |
| OR51F1 (olfactory receptor family 51 subfamily F member 1) | 0.58 |
| OR51F1 (olfactory receptor family 51 subfamily F member 1) | 1.61 |
| OR51F1 (olfactory receptor family 51 subfamily F member 1) | 3.49 (active) |
| OR51F1 (olfactory receptor family 51 subfamily F member 1) | 1.21 |
| DNAJC21 (DnaJ heat shock protein family (Hsp40) member C21) | 0.49 |
| DNAJC21 (DnaJ heat shock protein family (Hsp40) member C21) | 1.83 |
| DNAJC21 (DnaJ heat shock protein family (Hsp40) member C21) | -0.25 |
| DNAJC21 (DnaJ heat shock protein family (Hsp40) member C21) | 2 |
| KLKB1 (kallikrein B1) | -0.24 |
| KLKB1 (kallikrein B1) | 0.36 |
| KLKB1 (kallikrein B1) | 1.05 |
| KLKB1 (kallikrein B1) | 0.21 |
| NHSL3 (NHS like 3) | -1.35 |
| NHSL3 (NHS like 3) | -0.57 |
| NHSL3 (NHS like 3) | -0.66 |
| CAPN3 (calpain 3) | -1.46 |
| CAPN3 (calpain 3) | -1.16 |
| CAPN3 (calpain 3) | -1.45 |
| CAPN3 (calpain 3) | -1.21 |
| CFAP107 (cilia and flagella associated protein 107) | -1.11 |
| CFAP107 (cilia and flagella associated protein 107) | -1.4 |
| CFAP107 (cilia and flagella associated protein 107) | -1.49 |
| CFAP107 (cilia and flagella associated protein 107) | -0.92 |
| RSL24D1 (ribosomal L24 domain containing 1) | -0.14 |
| RSL24D1 (ribosomal L24 domain containing 1) | 0.22 |
| RSL24D1 (ribosomal L24 domain containing 1) | -0.13 |
| RSL24D1 (ribosomal L24 domain containing 1) | -0.09 |
| COL12A1 (collagen type XII alpha 1 chain) | -0.16 |
| COL12A1 (collagen type XII alpha 1 chain) | 1.13 |
| COL12A1 (collagen type XII alpha 1 chain) | 1.03 |
| COL12A1 (collagen type XII alpha 1 chain) | 2.2 |
| TMEM35A (transmembrane protein 35A) | -0.69 |
| TMEM35A (transmembrane protein 35A) | -0.85 |
| TMEM35A (transmembrane protein 35A) | -1.21 |
| TMEM35A (transmembrane protein 35A) | -1.48 |
| UBAC2 (UBA domain containing 2) | -0.14 |
| UBAC2 (UBA domain containing 2) | 1.94 |
| UBAC2 (UBA domain containing 2) | 0.08 |
| UBAC2 (UBA domain containing 2) | 1.15 |

Reagents above marked active:
| target | TNF reporter robust z-score |
| --- | --- |
| GADD45B (growth arrest and DNA damage inducible beta) | 2.91 (active) |
| RBM18 (RNA binding motif protein 18) | -1.55 (active) |
| SAYSD1 (SAYSVFN motif domain containing 1) | 2.98 (active) |
| SAYSD1 (SAYSVFN motif domain containing 1) | 3.31 (active) |
| PARP12 (poly(ADP-ribose) polymerase family member 12) | 2.92 (active) |
| ALAS2 (5'-aminolevulinate synthase 2) | -1.67 (active) |
| ALAS2 (5'-aminolevulinate synthase 2) | -1.69 (active) |
| FAM241A (family with sequence similarity 241 member A) | -1.91 (active) |
| FAM241A (family with sequence similarity 241 member A) | -1.68 (active) |
| KRTAP19-3 (keratin associated protein 19-3) | -1.62 (active) |
| OR51F1 (olfactory receptor family 51 subfamily F member 1) | 3.49 (active) |
